Screening data, single-dose tests

From ChEMBL document CHEMBL3988442, “University of Dundee, Small-Polar-MMV Screening Library” (2021).

Each number is a percent effect as filed.
The controls that fix the scale are not given in the record; negative values are as filed.
Compounds were drawn at random from those tested, without regard to their results.

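Assay of Toxoplasma gondii numbers, read through their beta-galactosidase reporter with a colour substrate. Concentration: 10 µM. Higher reads as fewer parasites (inferred from which compounds were picked for retests). Of about 67,000 compounds tested this way, about 260 (0.38%) reached 50% or more in at least one test.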

{"compound": "Cn1c(Cn2cccn2)nnc1C1CCN(Cc2cccnc2)CC1", "effect": -7.323}
{"compound": "O=C(c1ccnc(-n2ccnc2)c1)N1CCCC(n2cccn2)C1", "stereo": "configuration not stated", "effect": 12.69}
{"compound": "O=S(=O)(NCCCn1cncn1)c1ccc2c(c1)OCCO2", "effect": 26.4}
{"compound": "CCN1CC(COC(=O)c2cc(C)nn2CC)CC1=O", "stereo": "configuration not stated", "effect": -16.22}
{"compound": "CCCc1noc(CN2CCCC2c2noc(C3CC3)n2)n1", "stereo": "configuration not stated", "effect": 20.15}
{"compound": "Cc1noc(C)c1-c1cc(CCC2CN(C(=O)C(C)C)CCO2)ncn1", "stereo": "configuration not stated", "effect": 21.12}
{"compound": "CCOCC(=O)Nc1nccn1Cc1ccccc1Cl", "effect": 1.608}
{"compound": "Cc1cc(C)c(CNC(=O)C(C)Oc2ccccc2C#N)c(=O)[nH]1", "stereo": "configuration not stated", "effect": -6.728}
{"compound": "O=C1CC(c2ccsc2)c2sc(C(=O)O)c(-c3ccccc3)c2N1", "stereo": "configuration not stated", "effect": -3.983}
{"compound": "Cn1cc(C2CCCN2C(=O)CCn2ccc3ccccc32)cn1", "stereo": "configuration not stated", "effect": -5.513}
{"compound": "CCOC(=O)Cn1ccc(O)c(Cc2ccc(Cl)cc2Cl)c1=O", "effect": -12.91}
{"compound": "CCCN1CCCC1Cn1nc(C)cc1C", "stereo": "configuration not stated", "effect": -5.736}
{"compound": "Cc1nccn1-c1ccc(NC(=O)C2CCCN2CC2CC2)cc1", "stereo": "configuration not stated", "effect": 11.08}
{"compound": "O=C(NCC1CCCCC1)c1nnn(-c2ccc(Br)cc2)n1", "effect": 4.376}
{"compound": "CCCn1nc(C)c2c(C(F)F)cc(=O)n(CC(=O)O)c21", "effect": 28.08}
{"compound": "CC(C)c1nc(CN2CCCC2Cn2cccn2)no1", "stereo": "configuration not stated", "effect": 12.16}
{"compound": "CCN1CCN(C(=O)c2cc(C(=O)OC)nn2-c2ccccc2)CC1", "effect": -4.093}
{"compound": "CCn1nc(C)c2nc(C(C)C)nc(NCC(C)C)c21", "effect": 49.36}
{"compound": "O=C(O)C(F)(F)F.O=C(O)C(F)(F)F.[H][C@@]12CCN(c3ncc(F)cn3)C[C@]1([H])O[C@H](C(=O)NCc1cccnc1)C2", "effect": 3.39}
{"compound": "O=C(O)C(F)(F)F.O=C(O)C(F)(F)F.[H][C@]12CCN(C(=O)Cc3ccc(C)cc3)C[C@@]1([H])OCCN(CCN(C)C)C2", "effect": -3.497}
{"compound": "O=C(O)C(F)(F)F.O=C(O)C(F)(F)F.[H][C@@]12CCN(Cc3ccccn3)[C@]1([H])CC[C@H](COCC(=O)N(C)C)O2", "effect": 1.381}
{"compound": "Cn1nccc1C(=O)N1CCC(c2ncc(Cl)cc2S(C)(=O)=O)CC1", "effect": 1.492}
{"compound": "CS(=O)(=O)CCC(=O)NC1CC(c2ccccc2Cl)C1", "stereo": "configuration not stated", "effect": 28.28}
{"compound": "c1cnnc(N2CCCC2CNCc2nc(-c3ccco3)no2)c1", "stereo": "configuration not stated", "effect": -13.22}
{"compound": "O=C(c1cn(-c2ccccc2)nn1)N1CCCC(n2cccn2)C1", "stereo": "configuration not stated", "effect": 5.175}
{"compound": "O=C(O)C(F)(F)F.[H][C@@]12CN(C(=O)c3cnoc3C)C[C@]1([H])C(=O)N(Cc1cccc(C)n1)C2", "effect": -15.57}
{"compound": "CNC(=O)CCc1cc(C)nc(C2CCN(CC(=O)N(C)C)CC2)c1", "effect": 4.885}
{"compound": "CC(C)(C)c1n[nH]cc1CNC1CCC(O)CC1", "stereo": "configuration not stated", "effect": 0.9477}
{"compound": "CCN(CC)C(=O)N1CCN(C2=NCC(C)S2)CC1", "stereo": "configuration not stated", "effect": -10.46}
{"compound": "Cc1nc2n(n1)CC(Nc1ccnc(-c3ccccc3)n1)CC2", "stereo": "configuration not stated", "effect": -2.071}
{"compound": "COc1cc(CN(C)C(=O)NCc2nccs2)ccc1SC", "effect": -2.021}
{"compound": "CN(Cc1cnn(C)c1)CC(O)c1ccc2c(c1)OCO2", "stereo": "configuration not stated", "effect": -3.885}

Repeated from the top, 4 entries:

{"compound": "Cn1c(Cn2cccn2)nnc1C1CCN(Cc2cccnc2)CC1", "effect": -7.323}
{"compound": "O=C(c1ccnc(-n2ccnc2)c1)N1CCCC(n2cccn2)C1", "stereo": "configuration not stated", "effect": 12.69}
{"compound": "O=S(=O)(NCCCn1cncn1)c1ccc2c(c1)OCCO2", "effect": 26.4}
{"compound": "CCN1CC(COC(=O)c2cc(C)nn2CC)CC1=O", "stereo": "configuration not stated", "effect": -16.22}